# According to patent US10865191B2, “Heterocyclic compounds useful as modulators of TNF alpha” (BRISTOL-MYERS SQUIBB COMPANY, priority 2015, dated 2020):
# Sequences of proteins named here, by UniProt entry; tags and fusion partners are left off. Residues count along the entry.
# UniProt P01375, 77-233 limits assumed: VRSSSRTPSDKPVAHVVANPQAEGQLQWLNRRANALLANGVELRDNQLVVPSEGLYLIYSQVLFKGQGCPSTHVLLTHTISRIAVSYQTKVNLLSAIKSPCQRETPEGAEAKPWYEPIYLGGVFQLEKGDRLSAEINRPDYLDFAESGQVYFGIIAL
# Some entries share one result that the patent states for a list of compounds.
# Biological target: TNFα (Homo sapiens, UniProt P01375)
# Experiment: TNF induced HEK-Blue assay (NF-kB-driven secreted alkaline phosphatase reporter)
# Assay type: cell-based
# Conditions: read-out: IC50 values measured in the TNF induced HEK-Blue assay; TNFα 0.5 ng/mL, HEK-Blue-CD40L cells, 18 h
# Protocol: TNF or CD40L-Induced HEK-Blue Assay
# Test compounds serially diluted in DMSO were plated in an assay plate (LABCYTE, Cat. # LP-0200) at final concentrations ranging from 0.004 μM to 25 μM. TNFα (final concentration 0.5 ng/mL) or CD40L (final concentration 30 ng/mL) in assay buffer [DMEM, 4.5 g/l glucose (Gibco, Cat. 21063-029), 10% FBS (Sigma, F4135), 1% Penicillin-Streptomycin (Gibco, Cat. 15140-122), 1% Anti-Anti (Gibco, Cat. 15240-112) and 2 mM L-glutamine (Gibco, Cat. 25030-081)] was then added to the assay plate. After a 30 minute pre-incubation at 37° C. and 5% CO2, HEK-Blue™-CD40L cells (INVIVOGEN, Cat. Code hkb-cd40) containing a NF-kB-driven secreted alkaline phosphatase reporter gene were seeded into the assay plate at a density of 20,000 cells per well. […] Secreted alkaline phosphatase expression was measured using QUANTI-Blue™ (INVIVOGEN, Cat. Code rep-qb1) according to manufacturer's specifications and the assay plate was read on a PerkinElmer Envision at 620 nm.
# Inhibition data for the test compound over a range of concentrations was plotted as percentage inhibition of the test compound (100%=maximum inhibition). IC50 values were determined after correcting for background [(sample read-mean of low control)/(mean of high control-mean of low control)] where by the low control is DMSO without stimulation and high control is DMSO with stimulation. […]
smiles,measurement,value
"C[C@@H](Nc1c(Cl)cnc2ccc(-c3cnc(N4CCN(CC(=O)O)CC4)nc3)cc12)c1ccccc1F [Example 285, (R)-2-(4-(5-(3-chloro-4-((1-(2-fluorophenyl)ethyl)amino)quinolin-6-yl)pyrimidin-2-yl)piperazin-1-yl)acetic acid]",IC50,≤ 25 µM
